No constants are given. Whether binding was seen depends on the method and setting. In cells and extracts the contact can be indirect. Some binding calls cover weakened binding; strength is not graded here. For some of these results: Sequences can lack the tags named with a protein.
How the values were obtained:
[1] = molecular target: T1, Flag-USP36 (UniProt Q9P275); assay: co-IP; HCT116 cells transfected with Flag-USP36 or HA-c-Myc or their combination; lysate incubated with bead-conjugated FLAG or HA overnight at 4°C; western blot
T1 sequence: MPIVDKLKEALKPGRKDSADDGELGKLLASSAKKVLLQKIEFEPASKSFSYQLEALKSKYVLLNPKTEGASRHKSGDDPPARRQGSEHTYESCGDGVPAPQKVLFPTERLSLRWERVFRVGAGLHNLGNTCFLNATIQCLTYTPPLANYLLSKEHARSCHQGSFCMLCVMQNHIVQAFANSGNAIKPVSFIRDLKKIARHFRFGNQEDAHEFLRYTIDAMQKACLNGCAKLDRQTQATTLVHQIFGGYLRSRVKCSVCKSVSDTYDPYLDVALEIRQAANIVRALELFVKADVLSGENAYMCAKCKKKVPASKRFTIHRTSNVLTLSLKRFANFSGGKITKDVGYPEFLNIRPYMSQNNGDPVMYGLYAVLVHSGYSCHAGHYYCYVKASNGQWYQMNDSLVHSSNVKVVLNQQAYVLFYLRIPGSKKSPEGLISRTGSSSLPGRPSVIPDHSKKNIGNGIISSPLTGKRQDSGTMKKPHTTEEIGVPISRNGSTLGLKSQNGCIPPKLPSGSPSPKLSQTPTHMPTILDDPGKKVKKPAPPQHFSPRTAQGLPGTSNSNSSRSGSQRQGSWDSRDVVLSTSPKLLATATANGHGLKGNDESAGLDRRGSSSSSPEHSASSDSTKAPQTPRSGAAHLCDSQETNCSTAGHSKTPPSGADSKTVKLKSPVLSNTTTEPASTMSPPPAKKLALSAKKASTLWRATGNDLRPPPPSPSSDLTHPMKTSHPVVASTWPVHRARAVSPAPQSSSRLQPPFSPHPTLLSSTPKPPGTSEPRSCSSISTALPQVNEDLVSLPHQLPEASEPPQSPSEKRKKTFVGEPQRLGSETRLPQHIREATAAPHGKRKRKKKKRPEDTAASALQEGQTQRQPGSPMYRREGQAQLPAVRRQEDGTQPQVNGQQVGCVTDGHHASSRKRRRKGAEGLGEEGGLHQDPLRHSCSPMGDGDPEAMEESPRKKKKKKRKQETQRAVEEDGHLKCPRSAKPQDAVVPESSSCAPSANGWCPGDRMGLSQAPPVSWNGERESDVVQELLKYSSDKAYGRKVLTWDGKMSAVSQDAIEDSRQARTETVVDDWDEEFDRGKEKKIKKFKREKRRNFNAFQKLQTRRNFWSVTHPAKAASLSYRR

Sequences of proteins named here, by UniProt entry; tags and fusion partners are left off.
UniProt P01106: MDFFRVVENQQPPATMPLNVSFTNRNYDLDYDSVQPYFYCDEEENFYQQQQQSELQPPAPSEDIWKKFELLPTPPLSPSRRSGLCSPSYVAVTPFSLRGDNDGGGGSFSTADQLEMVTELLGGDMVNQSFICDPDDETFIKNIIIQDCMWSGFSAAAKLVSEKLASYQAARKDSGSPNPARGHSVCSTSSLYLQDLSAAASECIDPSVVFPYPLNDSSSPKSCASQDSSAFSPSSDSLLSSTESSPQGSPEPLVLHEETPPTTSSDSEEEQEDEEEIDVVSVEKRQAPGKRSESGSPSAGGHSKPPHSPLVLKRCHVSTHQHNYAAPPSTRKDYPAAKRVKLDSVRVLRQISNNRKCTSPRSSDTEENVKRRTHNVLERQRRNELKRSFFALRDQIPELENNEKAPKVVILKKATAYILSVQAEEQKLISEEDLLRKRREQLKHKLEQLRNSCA

[2] = molecular target: T2, Ubiquitin-specific protease 36 (human (endogenous in HCT116)) (UniProt Q9P275); assay: co-IP; endogenous proteins; HCT116 lysate incubated with anti-USP36 or anti-c-Myc antibody overnight at 4°C; western blot
T2 sequence: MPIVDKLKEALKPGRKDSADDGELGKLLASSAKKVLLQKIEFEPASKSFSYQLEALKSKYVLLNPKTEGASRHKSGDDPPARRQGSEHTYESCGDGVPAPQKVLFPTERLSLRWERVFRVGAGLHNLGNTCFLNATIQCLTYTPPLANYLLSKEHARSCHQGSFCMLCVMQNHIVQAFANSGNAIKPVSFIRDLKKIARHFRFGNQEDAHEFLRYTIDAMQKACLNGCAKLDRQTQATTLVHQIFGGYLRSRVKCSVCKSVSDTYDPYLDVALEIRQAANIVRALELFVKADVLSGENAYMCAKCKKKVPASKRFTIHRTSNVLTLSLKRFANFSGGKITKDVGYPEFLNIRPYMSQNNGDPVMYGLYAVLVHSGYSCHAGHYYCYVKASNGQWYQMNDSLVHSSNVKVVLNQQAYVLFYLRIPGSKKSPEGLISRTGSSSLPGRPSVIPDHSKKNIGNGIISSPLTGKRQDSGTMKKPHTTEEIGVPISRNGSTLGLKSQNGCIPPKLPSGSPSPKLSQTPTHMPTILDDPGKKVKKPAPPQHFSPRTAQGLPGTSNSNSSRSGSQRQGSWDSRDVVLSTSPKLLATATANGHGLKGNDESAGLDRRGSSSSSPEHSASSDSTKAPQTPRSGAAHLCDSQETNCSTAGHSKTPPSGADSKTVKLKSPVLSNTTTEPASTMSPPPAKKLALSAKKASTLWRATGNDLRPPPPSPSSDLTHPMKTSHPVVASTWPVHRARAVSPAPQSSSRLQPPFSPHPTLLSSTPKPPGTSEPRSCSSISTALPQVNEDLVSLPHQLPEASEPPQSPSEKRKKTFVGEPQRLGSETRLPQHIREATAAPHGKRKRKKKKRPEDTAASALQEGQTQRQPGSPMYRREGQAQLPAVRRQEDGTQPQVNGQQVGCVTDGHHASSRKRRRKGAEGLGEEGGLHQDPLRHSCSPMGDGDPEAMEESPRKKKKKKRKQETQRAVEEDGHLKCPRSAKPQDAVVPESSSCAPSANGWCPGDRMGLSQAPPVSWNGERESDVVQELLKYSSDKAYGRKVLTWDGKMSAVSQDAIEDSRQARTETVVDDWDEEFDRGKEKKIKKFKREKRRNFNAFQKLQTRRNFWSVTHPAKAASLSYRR

[3] = molecular target: c-Myc (human (endogenous in HCT116)) (UniProt P01106); assay: as above
[4] = molecular target: HA-c-Myc (UniProt P01106); assay: co-IP; HCT116 cells transfected with Flag-USP36 or HA-c-Myc or their combination; lysate incubated with bead-conjugated FLAG or HA overnight at 4°C; western blot

Q: Which binding [1] does the source give for HA-c-Myc (from UniProt P01106 1-454) here?
A: binds

Q: For c-Myc (from UniProt P01106 1-454), which binding [2] is on record?
A: binds

B1: Ubiquitin-specific protease 36 (enzyme, UniProt Q9P275 1-1123)
chain: MPIVDKLKEALKPGRKDSADDGELGKLLASSAKKVLLQKIEFEPASKSFSYQLEALKSKYVLLNPKTEGASRHKSGDDPPARRQGSEHTYESCGDGVPAPQKVLFPTERLSLRWERVFRVGAGLHNLGNTCFLNATIQCLTYTPPLANYLLSKEHARSCHQGSFCMLCVMQNHIVQAFANSGNAIKPVSFIRDLKKIARHFRFGNQEDAHEFLRYTIDAMQKACLNGCAKLDRQTQATTLVHQIFGGYLRSRVKCSVCKSVSDTYDPYLDVALEIRQAANIVRALELFVKADVLSGENAYMCAKCKKKVPASKRFTIHRTSNVLTLSLKRFANFSGGKITKDVGYPEFLNIRPYMSQNNGDPVMYGLYAVLVHSGYSCHAGHYYCYVKASNGQWYQMNDSLVHSSNVKVVLNQQAYVLFYLRIPGSKKSPEGLISRTGSSSLPGRPSVIPDHSKKNIGNGIISSPLTGKRQDSGTMKKPHTTEEIGVPISRNGSTLGLKSQNGCIPPKLPSGSPSPKLSQTPTHMPTILDDPGKKVKKPAPPQHFSPRTAQGLPGTSNSNSSRSGSQRQGSWDSRDVVLSTSPKLLATATANGHGLKGNDESAGLDRRGSSSSSPEHSASSDSTKAPQTPRSGAAHLCDSQETNCSTAGHSKTPPSGADSKTVKLKSPVLSNTTTEPASTMSPPPAKKLALSAKKASTLWRATGNDLRPPPPSPSSDLTHPMKTSHPVVASTWPVHRARAVSPAPQSSSRLQPPFSPHPTLLSSTPKPPGTSEPRSCSSISTALPQVNEDLVSLPHQLPEASEPPQSPSEKRKKTFVGEPQRLGSETRLPQHIREATAAPHGKRKRKKKKRPEDTAASALQEGQTQRQPGSPMYRREGQAQLPAVRRQEDGTQPQVNGQQVGCVTDGHHASSRKRRRKGAEGLGEEGGLHQDPLRHSCSPMGDGDPEAMEESPRKKKKKKRKQETQRAVEEDGHLKCPRSAKPQDAVVPESSSCAPSANGWCPGDRMGLSQAPPVSWNGERESDVVQELLKYSSDKAYGRKVLTWDGKMSAVSQDAIEDSRQARTETVVDDWDEEFDRGKEKKIKKFKREKRRNFNAFQKLQTRRNFWSVTHPAKAASLSYRR
Q: With B1 as the molecule, how does the binding [3] read?
A: binds

B2: Flag-USP36 (enzyme, UniProt Q9P275 1-1123)
chain: MPIVDKLKEALKPGRKDSADDGELGKLLASSAKKVLLQKIEFEPASKSFSYQLEALKSKYVLLNPKTEGASRHKSGDDPPARRQGSEHTYESCGDGVPAPQKVLFPTERLSLRWERVFRVGAGLHNLGNTCFLNATIQCLTYTPPLANYLLSKEHARSCHQGSFCMLCVMQNHIVQAFANSGNAIKPVSFIRDLKKIARHFRFGNQEDAHEFLRYTIDAMQKACLNGCAKLDRQTQATTLVHQIFGGYLRSRVKCSVCKSVSDTYDPYLDVALEIRQAANIVRALELFVKADVLSGENAYMCAKCKKKVPASKRFTIHRTSNVLTLSLKRFANFSGGKITKDVGYPEFLNIRPYMSQNNGDPVMYGLYAVLVHSGYSCHAGHYYCYVKASNGQWYQMNDSLVHSSNVKVVLNQQAYVLFYLRIPGSKKSPEGLISRTGSSSLPGRPSVIPDHSKKNIGNGIISSPLTGKRQDSGTMKKPHTTEEIGVPISRNGSTLGLKSQNGCIPPKLPSGSPSPKLSQTPTHMPTILDDPGKKVKKPAPPQHFSPRTAQGLPGTSNSNSSRSGSQRQGSWDSRDVVLSTSPKLLATATANGHGLKGNDESAGLDRRGSSSSSPEHSASSDSTKAPQTPRSGAAHLCDSQETNCSTAGHSKTPPSGADSKTVKLKSPVLSNTTTEPASTMSPPPAKKLALSAKKASTLWRATGNDLRPPPPSPSSDLTHPMKTSHPVVASTWPVHRARAVSPAPQSSSRLQPPFSPHPTLLSSTPKPPGTSEPRSCSSISTALPQVNEDLVSLPHQLPEASEPPQSPSEKRKKTFVGEPQRLGSETRLPQHIREATAAPHGKRKRKKKKRPEDTAASALQEGQTQRQPGSPMYRREGQAQLPAVRRQEDGTQPQVNGQQVGCVTDGHHASSRKRRRKGAEGLGEEGGLHQDPLRHSCSPMGDGDPEAMEESPRKKKKKKRKQETQRAVEEDGHLKCPRSAKPQDAVVPESSSCAPSANGWCPGDRMGLSQAPPVSWNGERESDVVQELLKYSSDKAYGRKVLTWDGKMSAVSQDAIEDSRQARTETVVDDWDEEFDRGKEKKIKKFKREKRRNFNAFQKLQTRRNFWSVTHPAKAASLSYRR
Q: Which binding [4] does the source give for B2 here?
A: binds

— article PMC11006458
